As usually defined, the AC50 is the concentration at which the activity in the assay is half-maximal.

Results on 57 compounds are retold here after PubChem BioAssay AID2685 (National Center for Advancing Translational Sciences (NCATS), 2010).

A short description of this assay: qHTS Assay for Lipid Storage Modulators in Drosophila S3 Cells.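 For cell number change: cells counted by Cell Tracker Red CMTPX staining in the red channel.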 The conditions noted are these: BODIPY lipid droplet fluorescence, 18-24 h; for cell number change: measured here: cell count max response, cells fed with added oleic acid. Put shortly: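 Drosophila S3 cells got compounds at several concentrations plus oleic acid (400 uM solution). Laser-scanning cytometry with 488 nm excitation read lipid droplets at 500-530 nm and cells at 575-640 nm. Percent activity was relative to 20 uM Triacsin C.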
A general note: In qHTS, concentration-response curves come from the screen itself.

The mark [1] stands for this setting: measured here: cell number channel AC50, cells fed with added oleic acid.
[2] abbreviates: measured here: lipid fluorescence (Fed channel) AC50, cells fed with added oleic acid.

The structures appear in SMILES notation. The list shows a part of the results. Further columns of the screen follow, without active or inactive calls. The list favours compounds with an active or inconclusive main result. Words in brackets tell the shape of the fitted curve; partial curves, single points and poor fits give uncertain potencies.

As to `O=[N+]([O-])c1ccccc1S(=O)(=O)Oc1ccccc1/C=N/n1cnnc1`, the cell number change was determined as 36.7%. The AC50 under setting [1] was 29.1 µM [rising, single point].

In the case of `O=C1c2ccccc2NC(c2ccco2)N1NS(=O)(=O)c1ccccc1` (stereo not drawn), the cell number change turned out to be 2.15%. Also, the AC50 under setting [2] is 2.31 µM [rising, partial curve].

`CCCCNC(=O)CCC(=O)Nc1ccc2nc(N3CCOCC3)cc(C)c2c1`: the cell number change was 152%. Also, under setting [1], the AC50 was 29.1 µM [rising, single point].

In the case of `CC1CCN(c2oc(-c3ccccc3Cl)nc2C#N)CC1`, the cell number change is -10.8%.

As to `CCN(CC)S(=O)(=O)c1cc(OC)c(C)cc1C`, the cell number change is 38.6%.

Regarding `O=c1c2[nH]c3ccc(F)cc3c2nc2n1CCS2`, the cell number change amounted to 21.1%. The AC50 under setting [2] is 6.51 µM [rising, single point].

Turning to `NNC(=O)c1n[nH]c(=O)c2ccccc12`, the cell number change stood at 42.1%. Also, the concentration at half-maximal activity (AC50) under setting [1] is 29.1 µM [rising, single point].

For `CCOC(=O)c1c(C)[nH]c(C(=O)OCC(=O)N2c3ccccc3CC2C)c1C` (stereo not drawn), the cell number change amounted to 9.9%. Besides, the half-maximal activity concentration (AC50) under setting [2] is 0.461 µM [rising, full curve].

On to `Cc1ccc(OCc2cc(C(=O)NC(C)Cc3cccnc3)no2)cc1C` (stereo not drawn), for which the cell number change is -1.47%. In addition, the half-maximal activity concentration (AC50) under setting [1] was 6.51 µM [rising, single point]. Also, the half-maximal activity concentration (AC50) under setting [2] was 11.6 µM [falling, single point].

For `CCOC(=O)c1cnc(SCc2nc(N)nc(Nc3ccc(C)cc3)n2)nc1N`, the cell number change is -37%. For the same compound, the AC50 under setting [1] is 20.6 µM [falling, single point]. For the same compound, the concentration at half-maximal activity (AC50) under setting [2] was 0.411 µM [rising, full curve, poor fit].

For the compound `O=C(O)c1cccc(NC2=C(n3nnc4ccccc43)C(=O)c3ccccc3C2=O)c1`, the cell number change is 19.8%. The AC50 under setting [1] is 0.291 µM [rising, full curve, poor fit]. Moreover, the AC50 under setting [2] is 5.8 µM [falling, single point].

For the compound `Cc1nnc(SCC(=O)NCC2COc3ccccc3O2)s1` (stereo not drawn), the cell number change came out at 13.9%. Moreover, the concentration at half-maximal activity (AC50) under setting [1] was 0.92 µM [falling, full curve]. Under setting [2], the AC50 was 0.92 µM [falling, full curve].

For `Cc1cccc(Sc2nc(-c3ccccc3)ccc2C#N)c1`, the cell number change was -17%.

In the case of `Cc1cccc(C)c1NC(=O)CSCC(=O)O`, the cell number change is 0.297%. For the same compound, the AC50 under setting [2] was 4.11 µM [rising, full curve].

On to `CCC(=O)c1ccc(Oc2ccc(C(=O)c3ccc(C)cc3)cc2[N+](=O)[O-])cc1`, for which the cell number change was -9.79%. For the same compound, under setting [1], the half-maximal activity concentration (AC50) was 0.146 µM [falling, full curve, poor fit].

For the compound `Cc1cccc(N(CC(=O)NC2CCCC2)C(=O)CCCC(=O)Nc2ccccn2)c1`, the cell number change was -0.955%. In addition, under setting [2], the AC50 is 29.1 µM [rising, single point].

With `O=C1c2ccc([N+](=O)[O-])cc2S(=O)(=O)N1Cc1ccccc1`, the cell number change was -21.3%. Besides, under setting [2], the concentration at half-maximal activity (AC50) was 3.66 µM [falling, full curve].

For `CCCCC(CC)COP(=O)(OCC(CC)CCCC)OCC(CC)CCCC` (stereo not drawn), the cell number change came to 16.8%. Besides, the AC50 under setting [2] is 16.4 µM [rising, single point].

In the case of `COC(=O)C(C(=O)NCC1CCCO1)C1CCCC1` (stereo not drawn), the AC50 under setting [2] is 5.8 µM [falling, single point].

Consider `CCCn1c(=O)c(C(=O)NNC(=O)c2ccccc2Cl)c(O)c2ccccc21`, for which the cell number change was -0.855%. The AC50 under setting [2] was 29.1 µM [falling, partial curve, poor fit].

Regarding `CCOC(=O)N1CCC(Nc2c(-c3ccccc3)c(=O)c2=O)CC1`, the cell number change amounted to 140%. Under setting [1], the half-maximal activity concentration (AC50) was 29.1 µM [rising, single point].

With `Cc1cccc(C)c1NC(=O)CSc1nnc(CCCCCNC(=O)OC(C)(C)C)o1`, the cell number change is -23.6%. Also, the AC50 under setting [2] was 2.06 µM [rising, partial curve].

Regarding `Cc1c(Cl)c([N+](=O)[O-])nn1CCCC(=O)Nc1sc2c(c1C(N)=O)CCC(C)C2` (stereo not drawn), the cell number change came to 11%. Besides, the AC50 under setting [2] was 8.2 µM [rising, partial curve].

Consider `COc1cccc(NC(=O)CN(C)C(=O)CCN2C(=O)C3CC=CCC3C2=O)c1` (stereo not drawn), for which the cell number change was -19%. Besides, the AC50 under setting [1] was 3.66 µM [falling, single point].

Regarding `CCCCNC(=O)c1onc(CSc2ccc(F)cc2)c1C(=O)NCCCC`, the cell number change is 2.91%. Under setting [2], the half-maximal activity concentration (AC50) is 2.06 µM [rising, partial curve, poor fit].

As to `O=C(CCc1ccc(S(=O)(=O)NCc2ccccc2)cc1)NCc1ccc2c(c1)OCO2`, the cell number change is 19.1%. Also, the AC50 under setting [2] is 6.51 µM [rising, single point].

Regarding `CCOCCn1ccc2c(OCC(=O)Nc3ccc(OC)c(OC)c3)cccc2c1=O`, the cell number change worked out at 73.5%. The half-maximal activity concentration (AC50) under setting [1] was 23.1 µM [rising, partial curve].

Take `COc1cc(OC)cc(C(=O)Nc2ccccc2-c2nnn(CC(=O)Nc3cc(C)on3)n2)c1`: the cell number change stood at 188%. The AC50 under setting [1] is 16.4 µM [rising, partial curve].

Consider `O=C(C1CCC(C(=O)N2CCCCC2)CC1)N1CCCCC1` (stereo not drawn), for which the cell number change is -25.1%. Also, under setting [1], the AC50 was 3.26 µM [falling, full curve, poor fit]. Also, the concentration at half-maximal activity (AC50) under setting [2] is 18.4 µM [falling, single point].

As to `COC(=O)c1c(NC(=O)CSc2nncs2)sc2c1CCCCC2`, the cell number change was -17.8%. In addition, the AC50 under setting [2] was 16.4 µM [rising, single point].

Regarding `Cc1ccc(O)c(C(CC(=O)NC(C)C)c2ccccc2)c1` (stereo not drawn), the cell number change is -8.92%. Moreover, the AC50 under setting [2] was 0.58 µM [falling, single point].

`CCC(C(=O)Nc1ccon1)c1ccccc1` (stereo not drawn): the AC50 under setting [1] is 0.146 µM [falling, full curve, poor fit].

Take `COc1ccc(/C=C2/SC(=S)N(CCCC(=O)Nc3cccc(O)c3)C2=O)cc1`: the cell number change is -34.1%. For the same compound, under setting [1], the concentration at half-maximal activity (AC50) is 23.1 µM [falling, single point]. Further, the AC50 under setting [2] is 13 µM [falling, partial curve].

On to `O=C(NCC1CCCO1)c1ccccc1-c1nc(-c2ccccc2F)no1` (stereo not drawn), for which the cell number change is -38.5%. In addition, the concentration at half-maximal activity (AC50) under setting [1] is 18.4 µM [falling, single point].

As for `CCC(=O)NC(=S)Nc1ccccc1OC`, the cell number change is -50.9%. The half-maximal activity concentration (AC50) under setting [1] is 29.1 µM [falling, single point]. Moreover, the half-maximal activity concentration (AC50) under setting [2] was 13 µM [falling, partial curve].

Consider `Cn1nc(-c2ccc(OCC(N)=O)cc2)c2ccccc2c1=O`, for which the cell number change stood at 123%. Further, the AC50 under setting [1] was 2.59 µM [rising, full curve]. Further, the half-maximal activity concentration (AC50) under setting [2] is 2.59 µM [rising, partial curve].

On to `CCc1cc(=O)oc2cc(OCC(=O)NCCCn3ccnc3)ccc12`, for which the cell number change was found to be 30%. Further, the AC50 under setting [2] is 14.6 µM [rising, partial curve].

For the compound `Cc1ccc(CNC(=O)c2ccc3nc4[nH]c5ccccc5c4nc3c2)cc1`, the cell number change was -30.1%. The concentration at half-maximal activity (AC50) under setting [1] is 4.61 µM [falling, full curve, poor fit]. Also, the AC50 under setting [2] was 3.26 µM [falling, full curve].

Take `COc1ccc(NC(=O)C(NC(=O)c2ccc(C)cc2)c2ccccc2)cc1` (stereo not drawn): the cell number change was -8.92%. Moreover, the concentration at half-maximal activity (AC50) under setting [2] is 20.6 µM [rising, single point].

As for `O=C(CSc1nnnn1-c1ccccc1)CC(=O)Nc1ccc(Cl)cc1`, the cell number change was -8.16%. Also, the concentration at half-maximal activity (AC50) under setting [2] was 6.51 µM [falling, partial curve, poor fit].

Turning to `CCOC(=O)c1c(NC(=O)C(C)N2CCN(S(=O)(=O)c3cccs3)CC2)sc2c1CCC(C)C2` (stereo not drawn), the cell number change came out at 76%. Under setting [1], the concentration at half-maximal activity (AC50) is 0.461 µM [rising, full curve]. For the same compound, the half-maximal activity concentration (AC50) under setting [2] was 6.51 µM [rising, partial curve, poor fit].

In the case of `Cc1c(C)c2ccc(OCC(=O)N3CCN(C(=O)C4COc5ccccc5O4)CC3)cc2oc1=O` (stereo not drawn), the cell number change is -9.51%.

As to `CC(=O)Nc1ccccc1OC(C)C(=O)NC(C)c1ccc(F)cc1` (stereo not drawn), the cell number change is -8.68%. Also, under setting [1], the AC50 was 0.116 µM [rising, full curve, poor fit].

As for `Cn1c(SCC(=O)NCc2ccco2)nnc1-c1ccc(S(=O)(=O)N2CCOCC2)cc1`, under setting [2], the concentration at half-maximal activity (AC50) was 5.17 µM [falling, full curve].

For `CCC(CC)C(=O)N1N=C(c2ccc(NS(C)(=O)=O)cc2)CC1c1ccc(C)cc1` (stereo not drawn), the cell number change was -36%. Under setting [1], the concentration at half-maximal activity (AC50) is 29.1 µM [falling, single point]. Also, the AC50 under setting [2] is 29.1 µM [falling, single point].

On to `COc1ccc2oc(C(=O)OCC(=O)N3CCN(C(C)=O)CC3)c(C)c2c1`, for which the cell number change turned out to be 89%.

In the case of `O=S(=O)(NCc1ccc(F)cc1)c1ccc(-n2cccn2)cc1`, the cell number change was 12.3%.

As for `O=C(NCCc1ccccn1)c1ccc(OC(F)F)cc1`, the concentration at half-maximal activity (AC50) under setting [1] was 0.00461 µM [falling, full curve, poor fit].

With `C(=N\Nc1nc(Nc2ccccc2)nc(N2CCOCC2)n1)/c1c[nH]c2ccccc12`, the cell number change is -40.9%. In addition, under setting [1], the AC50 is 5.17 µM [falling, partial curve]. In addition, the half-maximal activity concentration (AC50) under setting [2] was 5.8 µM [falling, partial curve].

Consider `CC(C)C[C@@H](C(=O)NCc1ccco1)N1C(=O)N2CCc3c([nH]c4ccccc34)[C@@]2(C)C1=O`, for which the cell number change was -9.71%. Also, the AC50 under setting [2] was 13 µM [falling, partial curve, poor fit].

As to `CCCCCCC(=O)N/N=C/c1ccc(Br)cc1`, the cell number change was -40.3%. Also, the AC50 under setting [1] was 14.6 µM [falling, partial curve]. Under setting [2], the AC50 was 1.16 µM [falling, single point].

In the case of `COc1ccccc1NS(=O)(=O)c1cccc(C(=O)N/N=C/c2cn(-c3ccccc3)nc2-c2ccccc2)c1`, the cell number change is -13.9%. In addition, the AC50 under setting [1] was 1.64 µM [rising, partial curve].

In the case of `O=C(N=Nc1c(O)[nH]c2ccccc12)c1ccccc1NS(=O)(=O)c1cccs1`, the cell number change was -26.3%. In addition, the half-maximal activity concentration (AC50) under setting [1] was 0.58 µM [rising, full curve].

For the compound `CC1(C)CC(NCc2ccncc2)CC(C)(C)N1`, the cell number change was -34.7%. Moreover, the AC50 under setting [1] was 29.1 µM [falling, single point]. Further, under setting [2], the half-maximal activity concentration (AC50) is 13 µM [falling, partial curve, poor fit].

For the compound `COc1ccc(C(=O)Nc2cccc(NC(C)=O)c2)cc1OC`, the cell number change is -0.767%. Besides, under setting [2], the concentration at half-maximal activity (AC50) was 7.31 µM [rising, partial curve].

For the compound `CCOc1ccccc1NC(=O)C1CC2CCCC(C1)C2=O` (stereo not drawn), the cell number change was 9.3%. Further, the AC50 under setting [2] is 25.9 µM [falling, single point].

Consider `O=S(=O)(c1cccs1)N1CCN(CC(O)COC2CCCc3ccccc32)CC1` (stereo not drawn), for which the cell number change is -9.35%. Moreover, the AC50 under setting [2] was 2.06 µM [falling, partial curve].
